No constants are given. Whether binding was seen depends on the method and setting. For part of these data: Binding seen in cells or lysates may run through a third protein. For part of these data: Where a sequence is shown, tags or fusion partners need not be part of it.
T1: AtHY2ΔTP (amino acids 46-329) in pGBKT7 (Arabidopsis thaliana) (UniProt Q9SR43)
T1 sequence: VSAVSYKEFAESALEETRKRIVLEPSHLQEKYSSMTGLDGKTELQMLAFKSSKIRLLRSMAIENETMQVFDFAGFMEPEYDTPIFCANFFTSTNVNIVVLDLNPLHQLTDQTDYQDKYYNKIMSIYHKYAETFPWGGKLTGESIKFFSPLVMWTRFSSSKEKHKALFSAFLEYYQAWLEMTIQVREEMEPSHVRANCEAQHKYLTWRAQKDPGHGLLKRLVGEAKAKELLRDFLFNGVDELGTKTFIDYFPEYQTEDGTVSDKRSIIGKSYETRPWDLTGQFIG

T2: cLUC-AtHY2ΔTP (Arabidopsis thaliana) (UniProt Q9SR43)
T2 sequence: T1 sequence

B1: AtPORBΔTP (amino acids 44-401) in pGADT7 (domain or fragment, UniProt P21218 44-401)
chain: SEHGSSSLRFKREQSLRNLAIRAQTAATSSPTVTKSVDGKKTLRKGNVVVTGASSGLGLATAKALAETGKWNVIMACRDFLKAERAAKSVGMPKDSYTVMHLDLASLDSVRQFVDNFRRTETPLDVLVCNAAVYFPTAKEPTYSAEGFELSVATNHLGHFLLARLLLDDLKKSDYPSKRLIIVGSITGNTNTLAGNVPPKANLGDLRGLAGGLNGLNSSAMIDGGDFDGAKAYKDSKVCNMLTMQEFHRRFHEETGVTFASLYPGCIASTGLFREHIPLFRALFPPFQKYITKGYVSETESGKRLAQVVSDPSLTKSGVYWSWNNASASFENQLSEEASDVEKARKVWEISEKLVGLA
B2: AtPORCΔTP (amino acids 67-401) in pGADT7 (domain or fragment, UniProt O48741 67-401)
chain: AQTVTATPPANEASPEQKKTERKGTAVITGASSGLGLATAKALADTGKWHVIMACRNFLKAEKAARSVGMSKEDYTVMHLDLASLESVKQFVENFRRTEQPLDVLVCNAAVYQPTAKEPSFTAEGFEISVGTNHLGHFLLSRLLLDDLKKSDYPSKRMIIVGSITGNTNTLAGNVPPKANLGDLRGLASGLNGQNSSMIDGGEFDGAKAYKDSKVCNMLTMQELHRRYHEETGVTFASLYPGCIATTGLFREHIPLFRLLFPPFQKYITKGYVSEEEAGKRLAQVVSDPSLGKSGVYWSWNNNSSSFENQLSKEASDAEKAKKLWEVSEKLVGLA
B3: AtPORAΔTP (amino acids 54-405) in pGADT7 (domain or fragment, UniProt Q42536 54-405)
chain: CKREQSLRNNKAIIRAQAIATSTPSVTKSSLDRKKTLRKGNVVVTGASSGLGLATAKALAETGKWHVIMACRDFLKAERAAQSAGMPKDSYTVMHLDLASLDSVRQFVDNFRRAEMPLDVLVCNAAVYQPTANQPTFTAEGFELSVGINHLGHFLLSRLLIDDLKNSDYPSKRLIIVGSITGNTNTLAGNVPPKANLGDLRGLAGGLNGLNSSAMIDGGDFVGAKAYKDSKVCNMLTMQEFHRRFHEDTGITFASLYPGCIATTGLFREHIPLFRTLFPPFQKYITKGYVSESEAGKRLAQVVADPSLTKSGVYWSWNKTSASFENQLSQEASDVEKARRVWEVSEKLVGLA
B4: nLUC-AtPORBΔTP (domain or fragment, UniProt P21218 44-401)
chain: B1 chain
B5: nLUC-AtPORCΔTP (domain or fragment, UniProt O48741 67-401)
chain: B2 chain
B6: nLUC-AtPORAΔTP (domain or fragment, UniProt Q42536 54-405)
chain: B3 chain

biological target: T1, AtHY2ΔTP (amino acids 46-329) in pGBKT7 (Arabidopsis thaliana); assay: two-hybrid; Matchmaker Gold system; baits in pGBKT7 (Y2H Gold) mated with preys in pGADT7 (Y187); spotted on SD/-Trp-Leu, SD/-Trp-Leu-Ade-His and SD/-Trp-Leu with 80 μg/ml X-gal, 28°C, 2-3 days

| binding | Binder |
| --- | --- |
| no binding | B1 |
| no binding | B2 |
| no binding | B3 |

biological target: T2, cLUC-AtHY2ΔTP (Arabidopsis thaliana); assay: split reporter; split-luciferase complementation; cLUC and nLUC fusions co-expressed in Nicotiana benthamiana leaves by Agrobacterium infiltration; luminescence imaged 48 h after infiltration with 1 mM luciferin

| binding | Binder |
| --- | --- |
| no binding | B4 |
| no binding | B5 |
| no binding | B6 |
